Measured values taken from PMC9627669.
No constants are given. Whether binding was seen depends on the method and setting. In cells and extracts the contact can be indirect. Some entries that bind do so weakly or less than the wild type. Blank lines part the entries; values can stand above or below the substance they belong to.

The chains behind the UniProt entries cited, without tags or fusion partners. Where a name states a change or a piece, a line headed by the entry shows the natural chain unless it says otherwise.
UniProt Q99816: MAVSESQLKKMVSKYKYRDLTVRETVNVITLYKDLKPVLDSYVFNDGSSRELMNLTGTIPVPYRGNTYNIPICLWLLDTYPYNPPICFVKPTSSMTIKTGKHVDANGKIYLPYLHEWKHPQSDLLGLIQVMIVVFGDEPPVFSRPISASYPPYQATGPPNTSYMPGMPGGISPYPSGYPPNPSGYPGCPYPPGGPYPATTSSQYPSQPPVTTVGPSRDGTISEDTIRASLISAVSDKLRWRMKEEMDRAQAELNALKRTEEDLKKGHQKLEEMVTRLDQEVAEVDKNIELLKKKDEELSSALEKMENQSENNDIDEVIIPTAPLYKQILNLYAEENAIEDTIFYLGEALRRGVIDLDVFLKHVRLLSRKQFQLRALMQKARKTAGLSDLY
UniProt P09874: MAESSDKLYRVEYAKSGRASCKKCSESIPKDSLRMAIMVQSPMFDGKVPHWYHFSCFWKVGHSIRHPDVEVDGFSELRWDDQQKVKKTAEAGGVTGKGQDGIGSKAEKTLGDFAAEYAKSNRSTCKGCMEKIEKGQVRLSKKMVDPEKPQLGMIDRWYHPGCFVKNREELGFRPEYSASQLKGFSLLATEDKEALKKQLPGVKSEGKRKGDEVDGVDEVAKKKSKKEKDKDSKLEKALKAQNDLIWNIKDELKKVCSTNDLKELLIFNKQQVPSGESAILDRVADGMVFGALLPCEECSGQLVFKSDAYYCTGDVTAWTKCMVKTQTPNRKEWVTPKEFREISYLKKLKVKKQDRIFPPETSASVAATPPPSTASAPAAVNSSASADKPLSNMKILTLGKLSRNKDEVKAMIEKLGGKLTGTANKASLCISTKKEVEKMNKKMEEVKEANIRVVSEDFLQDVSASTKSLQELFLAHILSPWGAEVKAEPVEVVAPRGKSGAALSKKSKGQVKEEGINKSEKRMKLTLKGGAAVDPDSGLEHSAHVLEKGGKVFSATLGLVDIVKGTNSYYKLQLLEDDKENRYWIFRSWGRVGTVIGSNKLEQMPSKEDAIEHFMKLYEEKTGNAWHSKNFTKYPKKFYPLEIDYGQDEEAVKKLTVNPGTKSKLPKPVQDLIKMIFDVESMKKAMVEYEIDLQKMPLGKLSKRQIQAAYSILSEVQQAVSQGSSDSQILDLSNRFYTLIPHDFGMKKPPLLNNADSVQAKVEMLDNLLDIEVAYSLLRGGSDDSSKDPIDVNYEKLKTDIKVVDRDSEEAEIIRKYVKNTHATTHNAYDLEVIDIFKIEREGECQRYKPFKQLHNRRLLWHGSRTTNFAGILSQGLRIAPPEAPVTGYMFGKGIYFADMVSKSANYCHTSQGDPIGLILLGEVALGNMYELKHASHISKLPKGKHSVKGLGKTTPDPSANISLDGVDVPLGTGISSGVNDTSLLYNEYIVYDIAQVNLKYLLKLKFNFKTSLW

Legend:
[1] = biological target: full-length mCherry-tagged TSG101 (UniProt Q99816); experiment: co-IP; immunoprecipitation of mCherry from whole-cell extracts of U2-OS cells transfected with full-length mCherry-TSG101; with or without irradiation (20 Gy, 45 min before analysis)
[2] = biological target: Poly(ADP-ribose) polymerase 1 (PARP1), endogenous (human (endogenous in U2-OS)) (UniProt P09874); experiment: proximity ligation; DuoLink PLA with PARP1 and TSG101 primary antibodies in fixed, permeabilised U2-OS cells; unstimulated, etoposide (50 uM, 10 min), or etoposide plus olaparib (10 uM, 24 h)
EGFP-tagged PARP1 = EGFP-tagged PARP1 (UniProt P09874); experiment: co-IP; GFP-trap immunoprecipitation of EGFP-PARP1 from whole-cell extracts (RIPA buffer) of U2-OS cells cotransfected with mCherry-tagged TSG101 deletion constructs

binding [1]: binds
Substance: Poly(ADP-ribose) polymerase 1 (PARP1), endogenous (from UniProt P09874 1-1014) (enzyme)

binding [2]: binds
Substance: TSG101 (tumor susceptibility gene 101 product), endogenous (from UniProt Q99816 1-390)

binding (EGFP-tagged PARP1): no binding
Substance: UEV domain of TSG101 (from UniProt Q99816 2-145) (domain or fragment)
